Results on five molecules are retold here after publication PMC8935229.

Sequences of proteins named here, by UniProt entry; tags and fusion partners are left off.
UniProt Q92905: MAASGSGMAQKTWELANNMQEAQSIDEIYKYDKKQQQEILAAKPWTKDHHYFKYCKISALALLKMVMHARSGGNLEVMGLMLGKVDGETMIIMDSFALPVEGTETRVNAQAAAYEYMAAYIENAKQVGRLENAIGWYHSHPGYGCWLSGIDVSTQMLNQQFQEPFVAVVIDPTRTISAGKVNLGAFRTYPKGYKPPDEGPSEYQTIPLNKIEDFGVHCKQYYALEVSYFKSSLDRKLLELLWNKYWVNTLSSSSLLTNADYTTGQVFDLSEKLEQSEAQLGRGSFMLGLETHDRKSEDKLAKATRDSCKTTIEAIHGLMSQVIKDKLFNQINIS
UniProt Q00987: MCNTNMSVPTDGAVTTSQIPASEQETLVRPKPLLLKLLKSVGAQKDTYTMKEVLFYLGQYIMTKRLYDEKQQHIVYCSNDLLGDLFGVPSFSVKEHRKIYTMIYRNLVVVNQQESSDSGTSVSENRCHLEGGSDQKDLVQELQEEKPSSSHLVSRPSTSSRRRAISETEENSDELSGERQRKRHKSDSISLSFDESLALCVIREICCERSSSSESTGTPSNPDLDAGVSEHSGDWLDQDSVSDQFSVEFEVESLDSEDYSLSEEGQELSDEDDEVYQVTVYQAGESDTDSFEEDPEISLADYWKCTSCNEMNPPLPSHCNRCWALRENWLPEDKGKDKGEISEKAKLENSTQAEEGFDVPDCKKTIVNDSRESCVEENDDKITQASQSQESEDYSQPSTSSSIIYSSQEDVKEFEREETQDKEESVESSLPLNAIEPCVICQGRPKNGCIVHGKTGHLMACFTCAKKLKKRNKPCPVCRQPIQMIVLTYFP
UniProt Q9HCE7: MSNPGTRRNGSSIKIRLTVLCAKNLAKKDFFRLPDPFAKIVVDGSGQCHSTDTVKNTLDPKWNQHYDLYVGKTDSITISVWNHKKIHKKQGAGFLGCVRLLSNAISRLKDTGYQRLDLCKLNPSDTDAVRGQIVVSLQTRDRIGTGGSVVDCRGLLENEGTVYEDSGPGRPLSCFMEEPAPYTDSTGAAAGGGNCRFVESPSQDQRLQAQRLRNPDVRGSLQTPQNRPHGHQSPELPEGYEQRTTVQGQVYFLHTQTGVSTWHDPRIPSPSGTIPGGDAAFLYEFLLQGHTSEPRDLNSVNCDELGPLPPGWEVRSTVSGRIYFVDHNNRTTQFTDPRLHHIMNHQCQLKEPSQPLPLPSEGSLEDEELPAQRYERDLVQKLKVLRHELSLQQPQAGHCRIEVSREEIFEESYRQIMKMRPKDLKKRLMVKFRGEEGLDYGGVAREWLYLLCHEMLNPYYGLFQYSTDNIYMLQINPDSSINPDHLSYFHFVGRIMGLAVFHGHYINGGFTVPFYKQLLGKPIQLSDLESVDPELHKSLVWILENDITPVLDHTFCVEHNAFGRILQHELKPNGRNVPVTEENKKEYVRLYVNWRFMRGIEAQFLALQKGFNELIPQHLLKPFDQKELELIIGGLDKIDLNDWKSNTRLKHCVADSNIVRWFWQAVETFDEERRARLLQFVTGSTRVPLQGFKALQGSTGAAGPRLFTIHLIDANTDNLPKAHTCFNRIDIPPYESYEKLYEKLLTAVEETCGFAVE
UniProt Q86TM6: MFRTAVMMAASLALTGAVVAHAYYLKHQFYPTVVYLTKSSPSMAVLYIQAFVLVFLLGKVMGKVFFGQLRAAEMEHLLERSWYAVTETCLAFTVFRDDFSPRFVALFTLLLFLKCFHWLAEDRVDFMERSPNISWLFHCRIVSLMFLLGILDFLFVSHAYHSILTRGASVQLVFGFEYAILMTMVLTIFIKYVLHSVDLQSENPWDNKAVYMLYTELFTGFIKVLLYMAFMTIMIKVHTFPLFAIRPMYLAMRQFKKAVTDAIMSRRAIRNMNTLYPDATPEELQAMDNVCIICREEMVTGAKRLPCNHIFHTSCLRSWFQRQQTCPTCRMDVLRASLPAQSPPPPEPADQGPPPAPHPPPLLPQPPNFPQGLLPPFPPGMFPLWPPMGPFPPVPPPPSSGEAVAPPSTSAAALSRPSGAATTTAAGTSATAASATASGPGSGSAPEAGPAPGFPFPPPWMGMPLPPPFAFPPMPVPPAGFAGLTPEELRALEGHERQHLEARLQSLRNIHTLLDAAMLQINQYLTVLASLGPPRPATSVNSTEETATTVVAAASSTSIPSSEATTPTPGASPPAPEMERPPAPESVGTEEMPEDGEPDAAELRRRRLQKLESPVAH

Sequences and labels used below:
T1: Zinc finger E-box-binding homeobox 1 (human (endogenous in MDA-MB-231)) (UniProt P37275)
T1 sequence: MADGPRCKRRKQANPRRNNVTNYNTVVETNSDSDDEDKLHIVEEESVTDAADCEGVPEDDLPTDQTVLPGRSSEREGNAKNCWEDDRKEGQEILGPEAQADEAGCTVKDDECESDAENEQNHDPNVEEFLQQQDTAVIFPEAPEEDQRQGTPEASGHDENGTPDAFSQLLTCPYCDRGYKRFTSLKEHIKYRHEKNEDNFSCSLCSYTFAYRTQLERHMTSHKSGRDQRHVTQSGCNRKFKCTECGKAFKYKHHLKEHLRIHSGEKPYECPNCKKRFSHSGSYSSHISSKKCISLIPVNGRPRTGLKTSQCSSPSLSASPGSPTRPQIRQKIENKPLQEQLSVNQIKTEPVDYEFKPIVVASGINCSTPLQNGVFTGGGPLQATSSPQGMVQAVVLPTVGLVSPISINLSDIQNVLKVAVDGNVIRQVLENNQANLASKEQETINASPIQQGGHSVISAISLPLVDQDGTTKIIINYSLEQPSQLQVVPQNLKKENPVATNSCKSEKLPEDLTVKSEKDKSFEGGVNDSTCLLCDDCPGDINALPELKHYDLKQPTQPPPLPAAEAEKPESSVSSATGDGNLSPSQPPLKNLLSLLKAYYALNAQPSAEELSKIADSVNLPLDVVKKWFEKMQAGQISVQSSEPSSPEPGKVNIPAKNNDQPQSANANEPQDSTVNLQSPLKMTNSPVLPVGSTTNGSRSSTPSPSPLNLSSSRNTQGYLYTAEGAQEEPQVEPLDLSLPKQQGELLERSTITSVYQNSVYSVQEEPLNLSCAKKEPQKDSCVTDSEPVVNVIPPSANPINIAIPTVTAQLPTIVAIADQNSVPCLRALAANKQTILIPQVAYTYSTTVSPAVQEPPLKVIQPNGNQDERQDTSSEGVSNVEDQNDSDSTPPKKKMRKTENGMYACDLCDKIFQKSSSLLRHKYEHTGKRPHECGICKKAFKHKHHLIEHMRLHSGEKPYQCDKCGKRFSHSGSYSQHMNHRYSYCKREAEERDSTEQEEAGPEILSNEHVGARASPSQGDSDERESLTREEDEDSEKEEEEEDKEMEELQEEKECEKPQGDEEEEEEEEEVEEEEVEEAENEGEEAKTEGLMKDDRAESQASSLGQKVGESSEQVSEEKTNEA

B1: USP51 (enzyme, UniProt Q70EK9 1-711)
chain: MAQVRETSLPSGSGVRWISGGGGGASPEEAVEKAGKMEEAAAGATKASSRREAEEMKLEPLQEREPAPEENLTWSSSGGDEKVLPSIPLRCHSSSSPVCPRRKPRPRPQPRARSRSQPGLSAPPPPPARPPPPPPPPPPPAPRPRAWRGSRRRSRPGSRPQTRRSCSGDLDGSGDPGGLGDWLLEVEFGQGPTGCSHVESFKVGKNWQKNLRLIYQRFVWSGTPETRKRKAKSCICHVCSTHMNRLHSCLSCVFFGCFTEKHIHKHAETKQHHLAVDLYHGVIYCFMCKDYVYDKDIEQIAKETKEKILRLLTSTSTDVSHQQFMTSGFEDKQSTCETKEQEPKLVKPKKKRRKKSVYTVGLRGLINLGNTCFMNCIVQALTHIPLLKDFFLSDKHKCIMTSPSLCLVCEMSSLFHAMYSGSRTPHIPYKLLHLIWIHAEHLAGYRQQDAHEFLIAILDVLHRHSKDDSGGQEANNPNCCNCIIDQIFTGGLQSDVTCQACHSVSTTIDPCWDISLDLPGSCATFDSQNPERADSTVSRDDHIPGIPSLTDCLQWFTRPEHLGSSAKIKCNSCQSYQESTKQLTMKKLPIVACFHLKRFEHVGKQRRKINTFISFPLELDMTPFLASTKESRMKEGQPPTDCVPNENKYSLFAVINHHGTLESGHYTSFIRQQKDQWFSCDDAIITKATIEDLLYSEGYLLFYHKQGLEKD

These are yes or no findings as the source states them, for the method shown. Binding seen in cells or lysates may run through a third protein. Some binding calls cover weakened binding; strength is not graded here.

The test addresses T1, Zinc finger E-box-binding homeobox 1 (human (endogenous in MDA-MB-231)). As to the kind of experiment: co-IP; extracts (RIPA buffer) of MDA-MB-231, shRNA-NC and shRNA-SENP1 MDA-MB-231 cells; immunoprecipitation with anti-ZEB1 or anti-IgG antibody overnight at 4 °C, protein A/G agarose; immunoblot for the partners. In general terms: In western blotting, separated proteins are transferred to a membrane and probed.
Regarding “COP9 signalosome complex subunit 5 (from UniProt Q92905 1-334) (enzyme)”, the binding entry is recorded as “binds”.

For the molecule “MDM2 (from UniProt Q00987 1-491) (enzyme)”, the binding entry was “binds”.

Turning to “SMURF1 (from UniProt Q9HCE7 1-757) (enzyme)”, the binding entry is recorded as “binds”.

Turning to “SYVN1 (from UniProt Q86TM6 1-617) (enzyme)”, the binding entry is “binds”.

Take B1: the binding result is “binds”.
